Measured data: PubChem BioAssay AID1259424 (University of Nebraska Medical Center, 2018)

Screen: 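Find knockdowns that reproduce the expression shifts seen after KSR1 loss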 (primary screen)
Cell system: human HCT116 colon cancer cells
Reagents: siRNA pool against human genes, 50 nM
Measured: 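Six signature mRNAs by branched-DNA multiplex assay, scaled to two housekeeping genes and non-targeting median, log2; matched to mean KSR1 knockdown profile by Pearson correlation and euclidean distance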
Direction: mean correlation with KSR1 profile and KSR1 correlation: higher = expression change more like KSR1 knockdown; mean distance from KSR1 profile: higher = expression change less like KSR1 knockdown
The whole screen tested about 14,000 reagents; this is a part drawn at random. 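Higher correlation or smaller distance means closer resemblance to KSR1 loss; control wells, including KSR1 knockdowns, recur on many plates.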 Not all columns of the deposit are shown. Not stated in the record: the time to read-out.

gene	mean correlation with KSR1 profile	mean distance from KSR1 profile	KSR1 correlation, replicate 1
TAAR2 (trace amine associated receptor 2)	0.828	1.35	0.843
ADRM1 (ADRM1 26S proteasome ubiquitin receptor)	0.692	0.854	0.764
VGLL1 (vestigial like family member 1)	-0.595	3.19	-0.595
TAP2 (transporter 2, ATP binding cassette subfamily B member)	0.458	1.36	0.176
B3GALT4 (beta-1,3-galactosyltransferase 4)	-0.382	2.7	-0.272
PLGLB2 (plasminogen like B2)	-0.569	2.54	-0.353
DCTN4 (dynactin subunit 4)	0.052	1.32	-0.0459
PSMC4 (proteasome 26S subunit, ATPase 4)	-0.759	3.83	-0.589
NINJ1 (ninjurin 1)	-0.0354	2.12	0.0367
SLC30A1	0.13	1.67	0.157
WDR87 (WD repeat domain 87)	0.407	1.82	0.264
NUDCD1 (NudC domain containing 1)	0.694	1.86	0.59
USHBP1 (USH1 protein network component harmonin binding protein 1)	0.718	1.73	0.54
PPP3R1 (protein phosphatase 3 regulatory subunit B, alpha)	-0.14	3.72	-0.168
ANKRD10 (ankyrin repeat domain 10)	-0.0105	2.43	0.0802
INSL4 (insulin like 4)	0.219	1.69	0.267
HERC5 (HECT and RLD domain containing E3 ubiquitin protein ligase 5)	-0.82	1.56	-0.694
LIPG (lipase G, endothelial type)	-0.847	1.25	-0.464
ABCE1 (ATP binding cassette subfamily E member 1)	-0.486	1.87	-0.23
WDR11 (WD repeat domain 11)	0.522	2.55	0.367
CMIP (c-Maf inducing protein)	0.181	2.26	-0.105
GML (glycosylphosphatidylinositol anchored molecule like)	-0.0921	2.95	-0.212
GAD1 (glutamate decarboxylase 1)	0.198	2.27	-0.0167
GYPB (glycophorin B (MNS blood group))	0.344	0.993	0.213
PYCARD (PYD and CARD domain containing)	0.4	1.71	0.229
EPS15 (epidermal growth factor receptor pathway substrate 15)	0.421	1.51	0.61
SPEN (spen family transcriptional repressor)	0.479	1.46	0.385
ODR4 (odr-4 GPCR localization factor homolog)	-0.591	3.22	-0.238
ZCCHC3 (zinc finger CCHC-type containing 3)	0.546	1.3	0.491
EPCAM (epithelial cell adhesion molecule)	-0.496	2.39	-0.609
TMED3 (transmembrane p24 trafficking protein 3)	-0.412	5.88	-0.528
ASAH2 (N-acylsphingosine amidohydrolase 2)	-0.309	5.83	-0.273
NELFB (negative elongation factor complex member B)	0.235	2.81	0.457
ATG10 (autophagy related 10)	0.0446	2.48	-0.014
ZNF286A (zinc finger protein 286A)	-0.0321	3.35	-0.19
CDR2L (cerebellar degeneration related protein 2 like)	0.816	1.57	0.802
RALGAPB (Ral GTPase activating protein non-catalytic subunit beta)	-0.577	2.15	-0.447
IFITM1 (interferon induced transmembrane protein 1)	-0.126	3.97	-0.0297
COX11 (cytochrome c oxidase copper chaperone COX11)	0.484	1.91	0.538
BARX2 (BARX homeobox 2)	-0.501	1.57	-0.854
HOXD11 (homeobox D11)	-0.0751	3.16	0.34
GGA1	-0.47	3.29	-0.532
MERTK (MER proto-oncogene, tyrosine kinase)	0.306	1.61	0.307
SCGB1D1 (secretoglobin family 1D member 1)	0.241	1.66	0.131
EGR1 (early growth response 1)	0.175	1.4	0.0134
APEX1 (apurinic/apyrimidinic endodeoxyribonuclease 1)	-0.0107	1.82	-0.275
CALCB (calcitonin related polypeptide beta)	-0.71	1.79	-0.611
TAPBPL (TAP binding protein like)	-0.488	2.35	-0.65
WDR47 (WD repeat domain 47)	-0.503	1.63	-0.319
DDB1 (damage specific DNA binding protein 1)	-0.304	3.08	-0.222

A few values from the entries so far.
Value for PPP3R1 (protein phosphatase 3 regulatory subunit B, alpha) under “mean correlation with KSR1 profile”: -0.14
Value of ABCE1 (ATP binding cassette subfamily E member 1) in “mean correlation with KSR1 profile”: -0.486
Entry for TAPBPL (TAP binding protein like) under “mean correlation with KSR1 profile”: -0.488
For “mean distance from KSR1 profile”, ANKRD10 (ankyrin repeat domain 10) has 2.43
